The values are deposited in ChEMBL (CHEMBL3988442, “University of Dundee, Small-Polar-MMV Screening Library” (2021)).

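Whole-cell assay for inhibitors of Mycobacterium tuberculosis growth, labelled Cornell in the record; the read-out is not stated. The concentration is filed as 10 mM, unlikely as a test dose, so the dose is not known. Higher means stronger inhibition (inferred from two other growth screens of the library). About 53,000 compounds were tested under these conditions; 1.7% (about 900) showed 50% or more at least once.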

Results are given as percent effect.
The record does not define 0% and 100%; most values in the screen are far below 50% and negative numbers occur (in some assays of this library far below -100).
This is an unselected part of the compounds tested.

- CCc1nccn1C1CCCN(C(=O)c2cnn3ccc(C)nc23)C1 (stereo not shown) | 7.725%
- CCC(=O)NCC(=O)NC(C)c1sc(-c2ccccc2F)nc1C (stereo not shown) | -2.382%
- CN1CCCN(Cn2nc(-c3ccccc3F)ccc2=O)CC1 | -8.625%
- Cn1ncnc1CNC1CCc2cc(Cl)ccc21 (stereo not shown) | 20.35%
- CCC[C@H]1CN(S(C)(=O)=O)C[C@@H]1NC(=O)Cc1ccc(F)cc1C | -2.791%
- Cc1ncc(C(=O)NCCNc2ncccn2)s1 | -0.6021%
- O=C(O)C(F)(F)F.O=C(O)C(F)(F)F.c1csc(CN2CCCC3(COCCN(c4cnccn4)C3)C2)c1 (stereo not shown) | -19.88%
- Cn1ncc(C2CC(=O)NCc3nc4sccn4c32)c1C1CC1 (stereo not shown) | 1.453%
- CN(C(=O)NCCCNc1ccccn1)C1CCS(=O)(=O)C1 (stereo not shown) | -5.542%
- O=C(Nc1nncs1)NC1CCc2ccccc21 (stereo not shown) | 45.64%
- Cc1sc(-c2ccco2)nc1C(=O)N(CC1CCOC1)C1CC1 (stereo not shown) | 25.52%
- COc1ccc(-c2ccc(C(=O)N3CCOCC3CC(=O)O)o2)cc1 (stereo not shown) | 13.02%
- COCC(=O)NC1CC2(CCN(CCF)CC2)Oc2ccccc21.O=C(O)C(F)(F)F (stereo not shown) | -2.18%
- Cc1ccc2oc(=O)n(CCC(=O)N3CCN(C)C(=O)C3)c2c1 | -30.79%
- c1ccc2c(c1)CCN2c1nc(N2CCOCC2)c2nn[nH]c2n1 | 19.71%
- CC(=O)N1CCC(Cc2cccc(-c3ccnn3C)n2)CC1 | 35.75%
- [H][C@@]12CS(=O)(=O)C[C@]1([H])N(C(=O)CCn1cc(Cl)cn1)CCN2C(=O)CC | 5.692%
- Cc1cccc(CNCC2COC3(CCCCC3)O2)c1C (stereo not shown) | -14.85%
- O=C1CCC(=O)N1CCn1nnc(-c2ccc(Br)cc2)n1 | -8.689%
- [H][C@]12CCN(c3ncccc3Cl)C[C@]1(COC)CC[C@@H](N1CCOCC1)C2 | 25.85%
- Cn1ccc(CS(=O)(=O)Cc2ccccc2)cc1=O | -26.32%
- [H][C@]12CCN(S(=O)(=O)N(C)C)C[C@@]1([H])CN(Cc1cnn(C)c1)C2 | -2.481%
- COc1ccc(CN[C@@H]2CO[C@H](CNC(=O)N3CCOCC3)[C@H]2O)cc1 | -35.76%
- COCCO[C@H]1CCN(c2cc(OC)ncn2)[C@H]1Cc1ccncc1 | 12.14%
- Cc1cc(CCCC(=O)NC2CCN(C)C2=O)c(C)s1 (stereo not shown) | 19.78%
- O=C(Cc1ccc2c(c1)CCC2)N1CCCC1Cn1cccn1 (stereo not shown) | -9.849%
- CCCn1ncc(C(=O)N(CCOC)Cc2c(C)nn(CC)c2C)c1C | -36.05%
- Cc1cc(C)cc(C(C)NC(=O)c2ccc(CS(C)(=O)=O)o2)c1 (stereo not shown) | 21.06%
- CC(C(=O)Nc1ccc(C#N)cc1)N1CCc2ccccc21 (stereo not shown) | 23.06%
- O=C(O)C(=O)O.c1csc(-c2noc(C3CN(Cc4ccc5c(c4)CCO5)C3)n2)c1 | 30.32%
- CCc1ncc(C(=O)N2CCCC2Cn2cccn2)s1 (stereo not shown) | -25.56%
- COCCS(=O)(=O)NCc1ccc(N(C)C)c(C)c1 | 9.206%
- O=C(O)C(F)(F)F.O=C1CC(c2ccccc2)C2(CCN(Cc3nccs3)CC2)N1 (stereo not shown) | 1.918%
- Cc1cc(C(F)(F)F)nc(CNc2cc(C)nc3cc(C)nn23)n1 | 13.97%
- [H][C@@]12OCCN(Cc3ccsc3)[C@@]1([H])CC[C@H]2Oc1ccccn1 | -13.09%
- O=C(c1cc(-c2cccs2)cs1)N1CCSCC1 | 48.33%
- CC(C)n1cc(-c2c(C#N)c(N)nc3c2COCC3)cn1 | -10.32%
- O=C(NC1CC(=O)N(C2Cc3ccccc3C2)C1)c1csnn1 (stereo not shown) | -16.28%
- CN(Cc1nnc(C2CC2)n1C)S(=O)(=O)c1ccc(F)c(C#N)c1 | 6.989%
- O=C(NC[C@@H]1CCCN1)c1cc(COc2cccc(C(F)(F)F)c2)[nH]n1 | -13.6%
- Cc1ccc(N2CCCC(NCc3ccc(C)s3)C2)nn1 (stereo not shown) | -5.833%
- Cc1ccnc(NCCNC(=O)C2CC3(CCNCC3)CN2C)c1 (stereo not shown) | -15.53%
- O=C(NCC1(O)CCCC1)c1ccc2nsnc2c1 | -4.76%
- CSCCC(O)C(=O)N1CCCN(Cc2ccc(F)cc2)CC1 (stereo not shown) | -25.46%

For reference, 4 entries once more:

Result for [H][C@]12CCN(c3ncccc3Cl)C[C@]1(COC)CC[C@@H](N1CCOCC1)C2 was 25.85%.
Result for Cn1ncc(C2CC(=O)NCc3nc4sccn4c32)c1C1CC1 (stereo not shown) was 1.453%.
Result for COCCO[C@H]1CCN(c2cc(OC)ncn2)[C@H]1Cc1ccncc1 was 12.14%.
Result for O=C(O)C(F)(F)F.O=C(O)C(F)(F)F.c1csc(CN2CCCC3(COCCN(c4cnccn4)C3)C2)c1 (stereo not shown) was -19.88%.